Experimental data published in article PMC13483900.
No constants are given. Whether binding was seen depends on the method and setting. Some entries that bind do so weakly or less than the wild type.

Sequences of proteins named here, by UniProt entry; tags and fusion partners are left off. A change or cut given only in a name is not applied to a line headed by its entry.
UniProt Q2NKJ3: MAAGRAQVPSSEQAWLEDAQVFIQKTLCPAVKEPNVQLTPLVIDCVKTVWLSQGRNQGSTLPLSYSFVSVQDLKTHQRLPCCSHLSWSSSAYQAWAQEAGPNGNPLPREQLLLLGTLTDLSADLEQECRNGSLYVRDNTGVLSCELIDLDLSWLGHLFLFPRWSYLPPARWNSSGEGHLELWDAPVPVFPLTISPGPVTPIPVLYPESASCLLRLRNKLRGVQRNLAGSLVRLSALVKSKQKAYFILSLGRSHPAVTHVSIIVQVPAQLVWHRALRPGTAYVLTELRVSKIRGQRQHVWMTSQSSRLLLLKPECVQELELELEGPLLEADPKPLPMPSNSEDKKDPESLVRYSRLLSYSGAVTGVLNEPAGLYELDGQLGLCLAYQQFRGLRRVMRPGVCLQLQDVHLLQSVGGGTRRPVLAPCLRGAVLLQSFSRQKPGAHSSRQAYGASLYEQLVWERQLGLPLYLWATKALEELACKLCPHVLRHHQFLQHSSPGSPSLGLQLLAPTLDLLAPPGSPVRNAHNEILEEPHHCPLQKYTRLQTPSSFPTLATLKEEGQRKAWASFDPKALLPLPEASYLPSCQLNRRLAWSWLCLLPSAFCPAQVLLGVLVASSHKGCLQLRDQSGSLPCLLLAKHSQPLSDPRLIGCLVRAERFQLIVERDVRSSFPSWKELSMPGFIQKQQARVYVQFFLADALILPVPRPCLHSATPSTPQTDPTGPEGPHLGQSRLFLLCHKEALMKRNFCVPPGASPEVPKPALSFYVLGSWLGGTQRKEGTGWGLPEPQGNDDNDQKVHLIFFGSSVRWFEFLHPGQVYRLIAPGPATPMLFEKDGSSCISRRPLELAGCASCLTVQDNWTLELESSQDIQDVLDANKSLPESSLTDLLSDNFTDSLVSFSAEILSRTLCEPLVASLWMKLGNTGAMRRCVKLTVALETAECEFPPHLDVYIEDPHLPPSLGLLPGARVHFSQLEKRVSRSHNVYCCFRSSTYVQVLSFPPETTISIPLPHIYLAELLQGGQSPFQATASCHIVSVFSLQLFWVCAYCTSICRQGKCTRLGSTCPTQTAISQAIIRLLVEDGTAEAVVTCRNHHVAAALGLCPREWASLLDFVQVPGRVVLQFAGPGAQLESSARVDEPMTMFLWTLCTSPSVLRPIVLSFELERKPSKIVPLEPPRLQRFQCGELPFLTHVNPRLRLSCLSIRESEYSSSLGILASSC
UniProt Q9H668: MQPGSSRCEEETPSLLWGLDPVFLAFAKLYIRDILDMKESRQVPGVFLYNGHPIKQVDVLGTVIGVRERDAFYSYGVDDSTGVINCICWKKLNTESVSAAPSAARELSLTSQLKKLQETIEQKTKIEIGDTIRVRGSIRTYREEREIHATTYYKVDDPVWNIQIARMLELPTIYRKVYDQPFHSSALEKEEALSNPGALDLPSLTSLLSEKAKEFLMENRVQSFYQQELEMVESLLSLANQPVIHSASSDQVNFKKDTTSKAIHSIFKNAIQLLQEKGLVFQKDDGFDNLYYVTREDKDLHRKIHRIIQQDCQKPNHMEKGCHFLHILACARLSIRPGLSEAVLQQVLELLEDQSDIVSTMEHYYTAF
UniProt Q86WV5: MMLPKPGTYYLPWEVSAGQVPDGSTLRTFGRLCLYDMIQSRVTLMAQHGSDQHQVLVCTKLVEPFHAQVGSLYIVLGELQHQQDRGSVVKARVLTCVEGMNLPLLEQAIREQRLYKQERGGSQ
UniProt P09884: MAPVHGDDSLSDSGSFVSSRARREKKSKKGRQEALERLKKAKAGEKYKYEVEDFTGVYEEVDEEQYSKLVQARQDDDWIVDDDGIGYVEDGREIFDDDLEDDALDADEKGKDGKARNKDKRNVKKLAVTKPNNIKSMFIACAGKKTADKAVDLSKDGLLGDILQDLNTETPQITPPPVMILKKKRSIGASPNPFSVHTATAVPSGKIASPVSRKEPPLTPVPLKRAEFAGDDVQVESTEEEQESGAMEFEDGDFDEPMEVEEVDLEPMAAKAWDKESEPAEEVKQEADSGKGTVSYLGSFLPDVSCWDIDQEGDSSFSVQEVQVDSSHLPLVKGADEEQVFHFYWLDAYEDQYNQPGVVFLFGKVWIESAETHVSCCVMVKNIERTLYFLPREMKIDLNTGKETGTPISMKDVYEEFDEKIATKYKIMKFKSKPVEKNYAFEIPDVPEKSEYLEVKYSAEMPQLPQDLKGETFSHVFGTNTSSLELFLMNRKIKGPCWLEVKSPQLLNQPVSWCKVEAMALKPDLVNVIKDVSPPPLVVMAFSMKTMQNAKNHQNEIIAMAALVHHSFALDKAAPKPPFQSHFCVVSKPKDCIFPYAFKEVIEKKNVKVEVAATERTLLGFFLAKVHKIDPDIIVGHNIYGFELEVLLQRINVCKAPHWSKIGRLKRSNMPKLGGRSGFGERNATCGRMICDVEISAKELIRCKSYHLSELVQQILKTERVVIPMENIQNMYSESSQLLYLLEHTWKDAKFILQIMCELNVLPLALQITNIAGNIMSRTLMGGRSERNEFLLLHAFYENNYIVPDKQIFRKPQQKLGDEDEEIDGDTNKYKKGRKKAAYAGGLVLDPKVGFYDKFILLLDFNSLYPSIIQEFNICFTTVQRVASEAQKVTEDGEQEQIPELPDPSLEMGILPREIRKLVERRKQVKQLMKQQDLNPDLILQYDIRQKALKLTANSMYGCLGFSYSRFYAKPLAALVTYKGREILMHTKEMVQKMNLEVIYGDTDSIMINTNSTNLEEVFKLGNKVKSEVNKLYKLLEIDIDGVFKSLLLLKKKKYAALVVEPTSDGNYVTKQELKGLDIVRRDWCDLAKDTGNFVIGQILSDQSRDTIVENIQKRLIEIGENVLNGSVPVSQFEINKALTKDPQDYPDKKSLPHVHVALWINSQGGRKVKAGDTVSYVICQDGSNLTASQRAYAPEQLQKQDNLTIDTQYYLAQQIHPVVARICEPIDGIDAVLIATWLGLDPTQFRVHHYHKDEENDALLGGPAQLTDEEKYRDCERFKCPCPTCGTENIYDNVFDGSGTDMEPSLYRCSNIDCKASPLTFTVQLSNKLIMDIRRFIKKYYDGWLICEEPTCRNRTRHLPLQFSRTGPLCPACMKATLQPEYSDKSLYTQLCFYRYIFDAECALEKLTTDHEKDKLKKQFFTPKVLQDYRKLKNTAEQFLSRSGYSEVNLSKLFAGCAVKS
UniProt P54274: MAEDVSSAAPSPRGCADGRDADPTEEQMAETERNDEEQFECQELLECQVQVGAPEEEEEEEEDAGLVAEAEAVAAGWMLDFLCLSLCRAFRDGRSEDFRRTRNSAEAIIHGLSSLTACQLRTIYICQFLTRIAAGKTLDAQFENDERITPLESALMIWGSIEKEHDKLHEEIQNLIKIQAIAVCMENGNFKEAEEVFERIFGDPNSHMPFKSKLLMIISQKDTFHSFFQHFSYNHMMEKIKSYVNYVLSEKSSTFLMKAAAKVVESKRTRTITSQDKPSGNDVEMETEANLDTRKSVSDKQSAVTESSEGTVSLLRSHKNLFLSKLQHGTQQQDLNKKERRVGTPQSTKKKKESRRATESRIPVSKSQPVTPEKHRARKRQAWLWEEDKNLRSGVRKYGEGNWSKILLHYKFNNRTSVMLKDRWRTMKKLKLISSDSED

Assays:
[1] = molecular target: CST (CTC1-STN1-TEN1) (human) (UniProt Q2NKJ3+Q9H668+Q86WV5); assay: co-purification; CST and Pol α/prim co-expressed in Hi5 insect cells by co-infection; complex purified as described (He et al, 2022); SDS-PAGE
[2] = molecular target: T1, TIN2 (StrepII-TINF2, long isoform) (human) (UniProt Q9BSI4); assay: co-purification (Strep-Tactin affinity, then SEC); subunits co-expressed in Hi5 insect cells; lysate (300 mM NaCl) on Streptactin XT resin via the Strep tag on TIN2, biotin elution, Superose 6 in 50 mM HEPES-KOH pH 7.6, 300 mM NaCl, 10% glycerol, 1 mM DTT; SDS-PAGE and immunoblot of the preparations
T1 sequence: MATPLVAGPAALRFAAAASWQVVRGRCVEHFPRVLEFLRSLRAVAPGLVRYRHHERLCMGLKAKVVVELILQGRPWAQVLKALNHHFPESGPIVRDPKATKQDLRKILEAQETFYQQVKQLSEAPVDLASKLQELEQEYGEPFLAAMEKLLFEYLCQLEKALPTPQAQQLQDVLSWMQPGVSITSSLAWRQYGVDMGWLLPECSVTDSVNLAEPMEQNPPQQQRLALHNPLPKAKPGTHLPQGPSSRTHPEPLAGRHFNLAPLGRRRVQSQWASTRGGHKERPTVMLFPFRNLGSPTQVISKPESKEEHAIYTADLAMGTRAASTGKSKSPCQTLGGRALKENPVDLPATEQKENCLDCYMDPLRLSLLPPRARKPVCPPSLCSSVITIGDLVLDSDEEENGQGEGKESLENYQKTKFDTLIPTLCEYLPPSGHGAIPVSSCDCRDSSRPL

Question: How did the binding [1] turn out when “Polymerase α/primase (from UniProt P09884 1-1462; Q14181 1-598; P49642 1-420; P49643 1-509) (complex)” was run?
Answer: binds

Question: TRF1 (from UniProt P54274 1-439) was tested. Which binding [2] did it give?
Answer: binds
